# In the supplement of paper PMC3334620:
# Over roughly 33,000 sequences, “E-score (-0.5 to 0.5)” has its median near -0.016; the highest 2% begin near 0.3. This is one part of the list.
# Target: T1, Yer184c (UniProt P39961)
# T1 sequence: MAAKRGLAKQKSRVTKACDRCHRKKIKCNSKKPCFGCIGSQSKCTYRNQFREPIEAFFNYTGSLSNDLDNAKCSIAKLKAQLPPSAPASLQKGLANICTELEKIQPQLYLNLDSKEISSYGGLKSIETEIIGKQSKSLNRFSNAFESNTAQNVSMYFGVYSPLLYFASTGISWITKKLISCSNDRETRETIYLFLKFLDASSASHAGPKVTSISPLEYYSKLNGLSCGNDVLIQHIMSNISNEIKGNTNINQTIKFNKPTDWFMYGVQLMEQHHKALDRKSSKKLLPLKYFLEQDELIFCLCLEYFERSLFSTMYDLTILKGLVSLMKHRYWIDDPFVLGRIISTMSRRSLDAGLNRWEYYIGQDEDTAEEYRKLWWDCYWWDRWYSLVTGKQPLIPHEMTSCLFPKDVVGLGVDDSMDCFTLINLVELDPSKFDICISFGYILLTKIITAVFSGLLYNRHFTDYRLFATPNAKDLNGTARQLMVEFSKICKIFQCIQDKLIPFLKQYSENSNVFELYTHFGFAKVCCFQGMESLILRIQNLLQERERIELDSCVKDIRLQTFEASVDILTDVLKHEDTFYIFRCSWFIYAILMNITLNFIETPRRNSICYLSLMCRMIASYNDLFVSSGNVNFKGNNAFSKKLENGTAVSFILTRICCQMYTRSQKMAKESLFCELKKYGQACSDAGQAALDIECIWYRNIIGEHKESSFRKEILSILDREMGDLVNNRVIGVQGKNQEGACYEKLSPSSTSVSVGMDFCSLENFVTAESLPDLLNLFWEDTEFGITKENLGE
# Assay: PBM E-score (8-mer binding enrichment) (E-score (-0.5 to 0.5)); higher = stronger / more preferred TF binding
# Settings: protein concentration: 100 nM; construct: GST-full length
# How it was run: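 PURExpress in vitro transcription/translation supplied GST-tagged yeast transcription factors, either full-length or DNA-binding domain. Applied at about 100-200 nM to universal all-10-mer Agilent arrays double-stranded by primer extension, the bound protein was detected with fluorescent anti-GST. E-scores, modified Wilcoxon-Mann-Whitney statistics, were given by the Universal PBM Analysis Suite to ungapped eight-base words pooled with their reverse complements after masliner normalisation.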
row,Sequence,PBM E-score
1,AGTACGGG,-0.172
2,TAAGCTAA,0.138
3,AAGGGCAG,-0.223
4,ACAGTAAA,0.101
5,GGATTGGA,-0.0491
6,CGACTTAC,0.0007
7,GAGTGACC,-0.127
8,GGCAATTA,0.061
9,CCCACCTA,-0.241
10,TATAACGA,0.0709
11,ATCGGCTA,0.265
12,ACGAGTGC,-0.105
13,ACTAAACC,0.136
14,CAGAATCC,0.0788
15,CCGTTGAA,0.106
16,GCGTAACC,-0.237
17,ATGGTTAC,0.0408
18,CGCCACCA,-0.27
19,CATATAGC,-0.00379
20,GGGTGGCA,-0.2
21,GGTCCCAC,-0.209
22,AGACGCGC,-0.123
23,CGACCCGA,0.0439
24,AAGAATGT,0.09
25,CCAGGCGG,0.106

# Pulled one by one from the entries so far (3):
row,Sequence,PBM E-score
14,CAGAATCC,0.0788
12,ACGAGTGC,-0.105
9,CCCACCTA,-0.241

# The list goes on.

row,Sequence,PBM E-score
1,AGGTCGAA,-0.0466
2,CATACACG,0.0872
3,CTGCAGGA,0.128
4,CGAGCTCA,0.144
5,CAGGTAAG,-0.147
6,AGGCGGTA,-0.135
7,CCATAAAC,-0.15
8,GTAAGCGA,0.00236
9,GAATGACA,0.0817
10,TCCGAGAA,0.324
11,AATAGCGT,0.0642
12,GCTAATAC,0.0878
13,CTCTTCCA,0.12
14,ACATTATA,0.105
15,ATTACAAG,0.0635
16,CACGGGGA,-0.0205
17,ATAACGGG,-0.0327
18,TTGATAAA,0.329
19,ATGAATCA,0.111
20,GACAAGTC,-0.131
21,CCGTATCA,0.228
22,ATTAAGGC,0.0774
23,CACTTTAC,-0.0215
24,AGGACGCC,-0.0847
25,CTAATCAA,0.134

row,Sequence,PBM E-score
1,CGTCTAAC,0.0407
2,CAGCGAAA,0.0997
3,GGTTACGA,-0.00282
4,ATGGGGTG,-0.23
5,GTGGCCTA,-0.208
6,CCCTTTCA,-0.192
7,ATATAGCA,-0.12
8,ACACGCGG,0.131
9,GCTACACC,-0.143
10,CAAACCAA,0.0827
11,ACATGTAG,-0.00247
12,GCCTGGAA,-0.17
13,GATCGGAC,0.322
14,ATATGCAC,-0.107
15,AGGTGGTC,-0.259
16,GTTACCCA,-0.139
17,AAGTATCA,0.0809
18,ATCGTTGG,0.0597
19,AAGATTAC,-0.0157
20,ACCTGAGG,-0.215
21,GCGATAGA,-0.092
22,ATTGCATA,0.0949
23,ATGATGCA,0.142
24,AACACGAG,0.0172
25,CCGCAGAG,-0.245

row,Sequence,PBM E-score
1,ACTGATAT,0.0537
2,AGCTAACC,-0.0846
3,ACACAAAT,0.2
4,AAGCATGG,-0.21
5,CAACACTG,-0.0678
6,CGCTACCC,-0.137
7,AAACTGCC,0.0723
8,CGTTCAGA,-0.0522
9,CGGCGATA,0.36
10,AGTACAAA,-0.0454
11,CGATAACA,0.145
12,GACGATAA,0.043
13,AAATTTAT,0.286
14,CCGACTAG,-0.036
15,CTTAATGA,-0.0707
16,AGCGGCAT,0.194
17,GTCCAGGA,-0.119
18,GCATTTCC,0.0434
19,TTCACCAA,0.0242
20,AGTATCAC,-0.0275
21,AATCACGG,0.189
22,GATCTTCC,0.152
23,AGAAGCCA,-0.0195
24,ATGAGGAG,-0.161
25,CCCGTCAC,-0.172

# A run of entries from the list above, as a working copy:
row,Sequence,PBM E-score
15,CTTAATGA,-0.0707
16,AGCGGCAT,0.194

# Next entries.

row,Sequence,PBM E-score
1,ATCGATGC,-0.0236
2,CCGCGAAA,0.178
3,AGCCGTGC,0.0424
4,ACTTAATA,0.182
5,CAAAGCTA,0.112
6,ACGCCAAA,-0.133
7,GGATTGAC,-0.0184
8,GTCGTACA,-0.151
9,ATGCGGAA,0.271
10,CCACACGG,-0.0813
11,AACACTAC,0.0594
12,GAGATTTA,-0.0184
13,CGGCACAG,0.298
14,AGAATCGC,0.105
15,CACTATGC,-0.00061
16,GGTGTAGA,-0.226
17,AGCACCGG,0.165
18,AATAAAAT,0.245
19,ATCTCCAC,-0.186
20,GCCTGGCA,-0.184
21,GATTCCCA,-0.0287
22,AAGCGTTC,-0.0864
23,AGCATCCT,-0.133
24,AGACATCT,-0.106
25,AAAGCTTA,0.122

row,Sequence,PBM E-score
1,ACAACCAA,-0.146
2,GAGCATAC,-0.0747
3,AGTCCCAC,-0.204
4,CGAATTCC,0.155
5,ATGCAATA,-0.11
6,GCAACAAC,-0.0398
7,CGAAATAA,0.255
8,TCACTTCA,-0.114
9,ACATATTA,0.303
10,CTGGTAAG,0.0165
11,AGGTTTGA,-0.124
12,AAGAGGAA,0.23
13,GATGCGCA,-0.132
14,GGCGGTAC,-0.0204
15,ATGTGTGG,-0.0465
16,TCAGCGCA,-0.0396
17,TCTCTCAA,0.148
18,AGACAACA,0.0565
19,ACAAATAT,0.294
20,GGAGCGTA,0.00527
21,AAACTAAC,0.186
22,ATTAGTCC,0.0928
23,AAGACACC,-0.0492
24,ACTCGTTA,-0.115
25,ACACGAAC,0.104

row,Sequence,PBM E-score
1,CGTTTCAC,0.135
2,ATCGTCAT,-0.0179
3,CACTAACA,-0.0483
4,CCCGTACG,-0.167
5,ACGACTGG,-0.133
6,CCTGCCTC,-0.26
7,CCTTCAAC,-0.11
8,CGGGGCAA,-0.0316
9,GCTTGGCC,-0.0475
10,CTAGAATC,-0.0424
11,CTGTCACC,-0.00626
12,CTTTAAAG,0.0852
13,CATGTCAG,-0.123
14,AGTTGACG,0.0095
15,AGTGAGCC,-0.191
16,GATCAAAC,0.0397
17,GAAGCCTA,0.0682
18,TCAGCCCA,-0.171
19,CATCACTC,-0.0441
20,GGGAGGAC,-0.0985
21,CGGACACA,0.139
22,ACCGAAGT,0.136
